Drawing on patent US20250283138A1, this text covers binding for 1 molecule.

In the assay the target is E. coli glutathione transferase ecGST(103FSY) (E. coli) (UniProt P0A9D2). Put plainly: homodimer crosslinking in E. coli, FSY at site 103, anti-His Western blot. Background: Immunoblotting shows a protein as a band on a membrane.

These are yes or no findings as the source states them, for the method shown. Some binding calls cover weakened binding; strength is not graded here. Where a sequence is shown, tags or fusion partners need not be part of it.

B1: E. coli glutathione transferase ecGST(103FSY) (enzyme)
chain: MKLFYKPGACSLASHITLRESGKDFTLVSVDLMKKRLENGDDYFAVNPKGQVPALLLDDGTLLTEGVAIMQYLADSVPDRQLLAPVNSISRYKTIEWLNYIATELHKGFTPLFRPDTPEEYKPTVRAQLEKKLQYVNEALKDEHWICGQRFTIADAYLFTVLRWAYAVKLNLEGLEHIAAFMQRMAERPEVQDALSAEGLK
modifications: FSY (fluorosulfate-L-tyrosine) at site 103
On to B1, for which the binding entry is on record as “binds”.
